The list shows a part of the results.
What was measured:
Test in all cases: log2 fold change, soluble protein after heating vs DMSO (PISA); higher = thermal stabilisation; K562 cells, 10 uM, 30 min; active = over 0.2 and 3.5 SD of the protein, either way, in both replicates (recomputed)
[1] = compound: C#Cc1cccc(Nc2ncnc3cc(OCCOC)c(OCCOC)cc23)c1 [erlotinib]
Summary of the method: (§1)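 K562 cells at 2×10^6 cells/mL were given 10 μM compound for 30 min. Aliquots then went through 3 min of heating across 48°C-58°C, were pooled, and were extracted in PBS with 0.5% NP-40 at 4°C, and the supernatant after 21,000xg for 90 min was quantified by TMTpro 16plex LC-MS/MS with channel sums equalised. Thermal stability relative to control samples, from duplicates, is given as log2 fold change.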

By UniProt entry, the sequences of proteins in these tests, tags left out. Where a name states a change or a piece, a line headed by the entry shows the natural chain unless it says otherwise.
UniProt Q9BRX2, whole entry, looked up: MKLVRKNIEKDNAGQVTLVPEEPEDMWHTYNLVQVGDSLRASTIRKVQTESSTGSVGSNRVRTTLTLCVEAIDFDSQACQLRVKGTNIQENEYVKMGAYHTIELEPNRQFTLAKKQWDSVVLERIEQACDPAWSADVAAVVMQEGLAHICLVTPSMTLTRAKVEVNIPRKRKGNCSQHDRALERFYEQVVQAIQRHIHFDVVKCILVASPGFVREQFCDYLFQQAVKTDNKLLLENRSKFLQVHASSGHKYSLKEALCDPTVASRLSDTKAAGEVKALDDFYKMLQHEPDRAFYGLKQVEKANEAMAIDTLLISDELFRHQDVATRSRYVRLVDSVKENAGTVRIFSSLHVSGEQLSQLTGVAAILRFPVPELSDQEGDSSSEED
UniProt Q5JVF3: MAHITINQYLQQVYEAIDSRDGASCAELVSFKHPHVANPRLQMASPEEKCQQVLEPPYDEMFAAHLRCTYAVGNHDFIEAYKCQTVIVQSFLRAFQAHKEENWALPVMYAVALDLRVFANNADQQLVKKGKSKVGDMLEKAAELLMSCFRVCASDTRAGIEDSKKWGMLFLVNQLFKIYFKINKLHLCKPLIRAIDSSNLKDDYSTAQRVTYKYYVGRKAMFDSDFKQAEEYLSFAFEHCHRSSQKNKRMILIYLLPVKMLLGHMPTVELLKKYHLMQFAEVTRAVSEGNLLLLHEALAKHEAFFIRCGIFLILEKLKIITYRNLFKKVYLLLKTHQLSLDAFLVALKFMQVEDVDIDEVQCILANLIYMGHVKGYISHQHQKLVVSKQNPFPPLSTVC
UniProt P51160: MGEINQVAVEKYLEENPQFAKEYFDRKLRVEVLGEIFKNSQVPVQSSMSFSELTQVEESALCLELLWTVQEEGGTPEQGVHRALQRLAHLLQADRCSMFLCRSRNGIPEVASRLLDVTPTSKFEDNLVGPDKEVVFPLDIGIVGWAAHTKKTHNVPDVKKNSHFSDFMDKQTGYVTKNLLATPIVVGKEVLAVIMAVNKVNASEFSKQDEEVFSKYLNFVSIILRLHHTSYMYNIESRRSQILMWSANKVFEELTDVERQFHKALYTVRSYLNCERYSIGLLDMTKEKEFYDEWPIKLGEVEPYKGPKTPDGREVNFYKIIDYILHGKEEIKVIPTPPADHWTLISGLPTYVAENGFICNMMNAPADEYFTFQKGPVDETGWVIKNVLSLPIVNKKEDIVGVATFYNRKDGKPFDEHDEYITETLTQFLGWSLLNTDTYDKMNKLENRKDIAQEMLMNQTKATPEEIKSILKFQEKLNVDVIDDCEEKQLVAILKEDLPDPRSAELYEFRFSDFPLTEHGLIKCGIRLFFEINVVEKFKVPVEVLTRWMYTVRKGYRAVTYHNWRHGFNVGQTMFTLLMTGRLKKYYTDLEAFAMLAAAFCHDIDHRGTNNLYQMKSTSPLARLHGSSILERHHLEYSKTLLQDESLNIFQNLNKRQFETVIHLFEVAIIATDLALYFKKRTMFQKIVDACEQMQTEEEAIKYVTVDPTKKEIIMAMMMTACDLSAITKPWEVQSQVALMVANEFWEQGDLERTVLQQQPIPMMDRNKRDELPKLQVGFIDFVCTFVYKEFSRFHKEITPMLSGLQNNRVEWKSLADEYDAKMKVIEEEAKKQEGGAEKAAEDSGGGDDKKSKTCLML
UniProt Q16342: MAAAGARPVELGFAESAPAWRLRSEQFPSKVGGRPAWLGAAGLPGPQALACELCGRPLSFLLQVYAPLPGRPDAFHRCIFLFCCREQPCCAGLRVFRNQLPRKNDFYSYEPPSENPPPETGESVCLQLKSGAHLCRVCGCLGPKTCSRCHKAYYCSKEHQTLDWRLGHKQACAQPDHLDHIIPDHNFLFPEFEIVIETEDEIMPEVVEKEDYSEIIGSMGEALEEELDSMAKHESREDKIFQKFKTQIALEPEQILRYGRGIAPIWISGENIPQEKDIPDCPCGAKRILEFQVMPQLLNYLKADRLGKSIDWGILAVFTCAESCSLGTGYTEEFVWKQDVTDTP
UniProt Q53EL6: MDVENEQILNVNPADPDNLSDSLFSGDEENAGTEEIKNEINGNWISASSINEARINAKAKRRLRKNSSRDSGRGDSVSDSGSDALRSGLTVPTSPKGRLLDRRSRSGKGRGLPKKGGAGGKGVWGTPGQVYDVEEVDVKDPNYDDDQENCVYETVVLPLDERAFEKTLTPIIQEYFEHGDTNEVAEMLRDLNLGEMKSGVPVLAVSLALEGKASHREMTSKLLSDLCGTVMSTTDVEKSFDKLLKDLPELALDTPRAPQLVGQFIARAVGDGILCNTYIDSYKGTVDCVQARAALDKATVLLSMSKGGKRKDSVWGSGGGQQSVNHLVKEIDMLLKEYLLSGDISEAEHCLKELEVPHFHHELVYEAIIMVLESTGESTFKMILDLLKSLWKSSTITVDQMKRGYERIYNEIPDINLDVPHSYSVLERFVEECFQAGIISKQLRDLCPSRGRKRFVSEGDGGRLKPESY
UniProt Q96RV3: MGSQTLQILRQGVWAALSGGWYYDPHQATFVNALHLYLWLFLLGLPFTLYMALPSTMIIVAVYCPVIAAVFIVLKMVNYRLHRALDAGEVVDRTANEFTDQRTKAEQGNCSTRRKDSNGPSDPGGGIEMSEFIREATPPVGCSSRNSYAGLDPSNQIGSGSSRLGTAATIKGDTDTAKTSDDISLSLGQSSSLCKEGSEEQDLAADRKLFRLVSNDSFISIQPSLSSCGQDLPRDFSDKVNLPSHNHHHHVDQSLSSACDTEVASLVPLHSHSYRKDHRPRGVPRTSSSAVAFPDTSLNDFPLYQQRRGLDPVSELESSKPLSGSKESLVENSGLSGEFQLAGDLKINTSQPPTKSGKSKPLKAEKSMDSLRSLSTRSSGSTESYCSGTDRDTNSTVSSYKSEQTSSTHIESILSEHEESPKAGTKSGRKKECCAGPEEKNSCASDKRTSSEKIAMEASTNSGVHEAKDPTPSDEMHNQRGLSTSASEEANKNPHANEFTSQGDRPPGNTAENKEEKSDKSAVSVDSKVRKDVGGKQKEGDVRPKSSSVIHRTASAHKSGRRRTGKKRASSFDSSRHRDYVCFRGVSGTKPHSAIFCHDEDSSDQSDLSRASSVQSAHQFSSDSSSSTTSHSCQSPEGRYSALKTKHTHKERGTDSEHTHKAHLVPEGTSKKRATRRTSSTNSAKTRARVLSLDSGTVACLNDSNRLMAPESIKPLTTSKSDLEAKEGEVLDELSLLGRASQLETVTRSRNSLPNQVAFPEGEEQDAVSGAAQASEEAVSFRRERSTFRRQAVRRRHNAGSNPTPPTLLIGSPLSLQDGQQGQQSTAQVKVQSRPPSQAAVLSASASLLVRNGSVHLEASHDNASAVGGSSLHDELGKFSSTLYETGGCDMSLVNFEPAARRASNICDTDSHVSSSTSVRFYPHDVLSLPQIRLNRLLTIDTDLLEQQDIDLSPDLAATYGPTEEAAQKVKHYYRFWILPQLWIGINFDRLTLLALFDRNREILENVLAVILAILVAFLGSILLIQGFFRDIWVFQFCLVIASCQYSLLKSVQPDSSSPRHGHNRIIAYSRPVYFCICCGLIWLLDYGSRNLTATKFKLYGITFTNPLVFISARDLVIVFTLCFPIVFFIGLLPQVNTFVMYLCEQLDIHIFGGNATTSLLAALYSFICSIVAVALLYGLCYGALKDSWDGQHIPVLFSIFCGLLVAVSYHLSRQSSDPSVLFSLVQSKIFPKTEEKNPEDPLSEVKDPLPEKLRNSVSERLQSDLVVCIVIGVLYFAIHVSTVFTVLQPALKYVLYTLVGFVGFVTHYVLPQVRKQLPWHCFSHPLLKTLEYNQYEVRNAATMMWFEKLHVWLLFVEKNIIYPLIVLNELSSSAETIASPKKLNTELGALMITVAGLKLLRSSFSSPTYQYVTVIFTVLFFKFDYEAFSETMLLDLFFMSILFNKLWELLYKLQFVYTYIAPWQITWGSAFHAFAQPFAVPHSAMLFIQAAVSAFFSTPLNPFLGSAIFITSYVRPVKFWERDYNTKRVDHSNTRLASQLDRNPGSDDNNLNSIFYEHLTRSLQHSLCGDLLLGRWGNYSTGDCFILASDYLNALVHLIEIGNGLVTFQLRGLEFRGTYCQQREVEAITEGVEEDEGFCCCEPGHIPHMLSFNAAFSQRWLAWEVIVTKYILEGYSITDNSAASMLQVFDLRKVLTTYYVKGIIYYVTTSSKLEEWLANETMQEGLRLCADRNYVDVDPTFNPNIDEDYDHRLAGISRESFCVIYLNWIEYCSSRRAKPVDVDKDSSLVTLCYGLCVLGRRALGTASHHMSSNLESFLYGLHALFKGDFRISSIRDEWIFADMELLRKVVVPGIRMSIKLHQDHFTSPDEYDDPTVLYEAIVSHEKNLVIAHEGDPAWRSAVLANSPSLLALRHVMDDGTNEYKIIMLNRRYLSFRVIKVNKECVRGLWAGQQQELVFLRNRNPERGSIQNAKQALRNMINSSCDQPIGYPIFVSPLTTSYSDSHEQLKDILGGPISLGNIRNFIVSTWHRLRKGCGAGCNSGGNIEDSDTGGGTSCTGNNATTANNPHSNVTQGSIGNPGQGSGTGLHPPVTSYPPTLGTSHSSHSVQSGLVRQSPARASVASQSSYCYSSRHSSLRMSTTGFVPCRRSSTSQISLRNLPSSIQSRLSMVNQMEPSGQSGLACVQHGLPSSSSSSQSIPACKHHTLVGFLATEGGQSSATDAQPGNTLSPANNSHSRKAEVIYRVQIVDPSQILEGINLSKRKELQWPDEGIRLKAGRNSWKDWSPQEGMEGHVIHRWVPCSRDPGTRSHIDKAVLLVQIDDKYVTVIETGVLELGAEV
UniProt Q8N5Y8: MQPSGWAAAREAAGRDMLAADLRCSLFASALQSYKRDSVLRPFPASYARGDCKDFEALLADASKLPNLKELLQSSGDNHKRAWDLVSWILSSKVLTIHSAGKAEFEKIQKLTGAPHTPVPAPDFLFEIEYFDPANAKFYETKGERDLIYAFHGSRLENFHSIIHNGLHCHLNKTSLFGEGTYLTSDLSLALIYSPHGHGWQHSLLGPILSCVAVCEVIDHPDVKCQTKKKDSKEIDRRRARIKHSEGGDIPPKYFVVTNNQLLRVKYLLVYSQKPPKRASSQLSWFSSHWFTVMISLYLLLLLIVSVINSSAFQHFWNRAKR
UniProt Q9NV79: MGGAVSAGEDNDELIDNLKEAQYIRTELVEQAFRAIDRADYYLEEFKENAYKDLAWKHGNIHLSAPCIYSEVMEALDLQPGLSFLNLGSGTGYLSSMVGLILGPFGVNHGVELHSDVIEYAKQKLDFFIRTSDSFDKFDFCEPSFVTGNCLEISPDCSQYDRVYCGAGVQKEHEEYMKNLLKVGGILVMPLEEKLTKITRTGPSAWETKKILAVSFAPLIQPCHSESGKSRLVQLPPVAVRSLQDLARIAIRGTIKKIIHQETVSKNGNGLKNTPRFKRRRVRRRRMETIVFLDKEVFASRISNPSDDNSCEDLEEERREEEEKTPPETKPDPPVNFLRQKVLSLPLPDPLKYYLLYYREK
UniProt Q9Y5B6: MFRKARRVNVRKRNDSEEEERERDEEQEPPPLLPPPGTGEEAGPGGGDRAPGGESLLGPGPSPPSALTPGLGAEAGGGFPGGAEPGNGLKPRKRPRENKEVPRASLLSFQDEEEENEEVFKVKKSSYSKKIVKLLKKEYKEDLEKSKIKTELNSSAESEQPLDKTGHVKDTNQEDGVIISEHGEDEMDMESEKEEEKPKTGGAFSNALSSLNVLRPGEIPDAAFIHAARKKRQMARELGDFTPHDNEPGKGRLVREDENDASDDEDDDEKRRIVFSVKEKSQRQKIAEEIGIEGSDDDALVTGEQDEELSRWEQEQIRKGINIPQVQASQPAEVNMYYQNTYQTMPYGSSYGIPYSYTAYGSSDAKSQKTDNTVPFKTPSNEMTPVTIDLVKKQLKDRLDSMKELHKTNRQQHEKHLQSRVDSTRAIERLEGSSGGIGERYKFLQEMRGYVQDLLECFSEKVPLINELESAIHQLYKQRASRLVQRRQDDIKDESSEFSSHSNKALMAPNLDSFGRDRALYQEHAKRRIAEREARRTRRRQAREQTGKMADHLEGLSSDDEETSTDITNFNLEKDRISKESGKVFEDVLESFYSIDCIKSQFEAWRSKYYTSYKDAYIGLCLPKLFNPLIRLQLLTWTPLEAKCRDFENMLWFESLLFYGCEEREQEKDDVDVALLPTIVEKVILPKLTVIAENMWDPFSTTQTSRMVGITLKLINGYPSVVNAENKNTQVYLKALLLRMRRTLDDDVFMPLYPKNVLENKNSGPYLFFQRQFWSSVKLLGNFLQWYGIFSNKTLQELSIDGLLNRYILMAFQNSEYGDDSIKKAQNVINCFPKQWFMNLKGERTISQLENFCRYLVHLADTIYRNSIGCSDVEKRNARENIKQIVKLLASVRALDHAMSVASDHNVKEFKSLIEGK
UniProt Q7Z2X7: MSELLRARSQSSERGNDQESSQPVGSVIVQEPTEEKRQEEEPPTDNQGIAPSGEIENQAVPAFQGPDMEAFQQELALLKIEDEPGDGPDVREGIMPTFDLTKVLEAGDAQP

[2] = compound: C/C(=N\NC(=O)C1=CC(=CC=C1)S(=O)(=O)N2CCOCC2)/C3=C(C=CC(=C3)Cl)O
Summary of the method: as §1

[3] = compound: C1=CC(=C(C=C1Cl)C2=NC3=NC=CN=C3C(=N2)NC4=CC=NC=C4)F
Summary of the method: as §1

[4] = compound: C1=CC(=CC=C1C2=NC3=C(N2)C=C(C=C3)C(=O)N)OC4=CC=C(C=C4)Cl
Summary of the method: as §1

[5] = compound: C1=CC2=C(C=CC(=C2)/C=C\3/C(=O)NC(=NCC4=CC=CS4)S3)N=C1
Summary of the method: as §1

[6] = compound: C1=CC2=NC=CN=C2C=C1/C=C/3\C(=O)NC(=O)S3
Summary of the method: as §1

[7] = compound: C1=CC=C(C=C1)C2=NC(=C(N2)C3=CC=NC=C3)C4=CC(=C(C=C4)Cl)O
Summary of the method: as §1

[8] = compound: C1=CC=C2C(=C1)C3=NNC4=CC=CC(=C43)C2=O
Summary of the method: as §1

[9] = compound: C1CCN(C1)C(=O)NC2=CC=CC(=C2)NC3=NC=C(C(=N3)NCCC4=CN=CN4)Br
Summary of the method: as §1

[10] = compound: C1CN(CCC1(CC2=CC=C(C=C2)Cl)N)C3=NC=NC4=C3C=CN4
Summary of the method: as §1

Measured: log2 fold change

PELO (UniProt Q9BRX2)
inactive: [1] 0.153 | [2] 0.017 | [3] -0.108 | [4] 0.074 | [5] 0.105 | [6] -0.104 | [7] 0.079 | [8] 0.021 | [9] -0.097 | [10] -0.058

PAFAH2 (UniProt Q99487)
inactive: [1] -0.004 | [2] 0.138 | [4] -0.018 | [5] -0.144 | [6] -0.02 | [7] -0.008 | [8] 0.011 | [9] -0.017 | [10] 0.08

PAN2 (UniProt Q504Q3)
inactive: [6] 0.044

PCID2 (UniProt Q5JVF3)
inactive: [1] 0.086 | [3] -0.088 | [4] -0.021 | [6] 0.028 | [7] -0.005 | [9] -0.086 | [10] -0.161

PACSIN3 (UniProt Q9UKS6)
inactive: [1] -0.085 | [3] -0.052 | [4] -0.063 | [7] -0.052

PCBP2 (UniProt F8VZX2)
inactive: [1] -0.014 | [4] -0.077 | [6] -0.019 | [7] -0.008

PDZD11 isoform 2 (UniProt Q5EBL8)
inactive: [1] 0.083 | [3] 0.021 | [4] -0.005 | [6] 0.046 | [7] 0.001 | [9] 0.008 | [10] -0.046

PCNX3 (UniProt Q9H6A9)
inactive: [1] -0.096 | [4] -0.222

PALM (UniProt O75781)
inactive: [1] 0.067 | [4] 0.079

PDE6C (UniProt P51160)
inactive: [2] 0.088 | [5] 0.255 | [6] 0.094 | [7] 0.101 | [8] 0.024 | [9] -0.324 | [10] -0.021

PDCD2 (UniProt Q16342)
inactive: [3] -0.135 | [6] -0.108 | [9] -0.021 | [10] -0.118

PDCD4 (UniProt Q53EL6)
inactive: [1] 0.107 | [2] -0.041 | [3] 0.14 | [4] -0.051 | [5] 0.16 | [6] 0.145 | [7] 0.072 | [8] 0.108 | [9] 0.024 | [10] 0.027

PAN3 (UniProt Q58A45)
inactive: [7] 0.128

PDIA3 (UniProt H7BZJ3)
inactive: [1] -0.071 | [2] -0.145 | [3] -0.076 | [4] -0.054 | [5] -0.128 | [6] -0.007 | [8] 0.071 | [9] 0.257 | [10] 0.172

PACC1 (UniProt Q9H813)
inactive: [2] 0.039 | [3] 0.121 | [5] 0.138 | [6] -0.002 | [8] -0.023 | [9] -0.015 | [10] -0.027

PDXP (UniProt B1AHD3)
inactive: [3] 0.129

PAF1 (UniProt Q8N7H5)
inactive: [3] -0.054 | [7] 0.015

PAICS (UniProt D6RF62)
inactive: [2] -0.408 | [5] 0.437 | [7] -0.533 | [8] -0.268

PCNX1 (UniProt Q96RV3)
inactive: [3] 0.036 | [6] -0.006 | [9] -0.019 | [10] -0.041

PARP16 isoform 3 (UniProt Q8N5Y8)
inactive: [1] 0.025 | [2] 0.049 | [3] -0.055 | [4] -0.018 | [5] -0.029 | [6] 0.102 | [8] -0.013 | [9] -0.026 | [10] 0.067

PABPN1 (UniProt Q86U42)
inactive: [6] 0.156

PCLAF (UniProt Q15004)
inactive: [1] 0.073 | [2] -0.017 | [3] -0.066 | [4] 0.016 | [5] -0.039 | [6] 0.033 | [7] -0.105 | [8] -0.13 | [9] -0.036 | [10] 0.032

PDE4DIP (UniProt E9PS60)
inactive: [1] 0.086 | [4] -0.175

PDIA4, A0A499FI48
inactive: [2] 0.128 | [5] -0.066 | [7] -0.1 | [8] 0.124 | [9] 0.262 | [10] -0.154

PCMTD2 (UniProt Q9NV79)
inactive: [7] -0.087 | [9] -0.01 | [10] -0.081

PCDH1 isoform 2 (UniProt Q08174)
inactive: [9] 0.023 | [10] 0.191

PAXBP1 (UniProt Q9Y5B6)
inactive: [1] 0.086 | [4] -0.047 | [6] 0.29 | [7] -0.231 | [9] -0.009 | [10] -0.458

PAFAH1B1 (UniProt I3L3N5)
inactive: [2] -0.19 | [5] 0.258 | [6] 0.167 | [8] -0.08

PCSK7 (UniProt Q16549)
inactive: [1] -0.082 | [4] -0.044

PDE3B (UniProt Q13370)
inactive: [3] -0.088

PEX10 isoform 2 (UniProt O60683)
inactive: [2] -0.048 | [5] -0.085 | [8] 0.039 | [9] 0.019 | [10] 0.11

PCBP2 (UniProt F8VRH0)
inactive: [1] -0.011 | [2] 0.07 | [3] 0.016 | [4] -0.099 | [5] -0.26 | [6] -0.153 | [8] -0.04 | [9] -0.13 | [10] 0.113

PAGE2 (UniProt Q7Z2X7)
inactive: [1] -0.045 | [2] -0.133 | [3] 0.132 | [4] 0.148 | [5] -0.019 | [6] 0.152 | [8] 0.144 | [9] -0.106 | [10] -0.047

PEMT isoform 2 (UniProt Q9UBM1)
inactive: [1] -0.087 | [4] 0.021 | [9] -0.189 | [10] 0.031

PCSK6 isoform 7 (UniProt P29122)
inactive: [2] -0.227 | [5] 0.234 | [6] 0.06 | [8] -0.017

PDE6D (UniProt O43924)
inactive: [1] -0.094 | [2] 0.055 | [3] -0.082 | [4] -0.102 | [5] 0.078 | [6] 0.004 | [8] 0.115 | [9] 0.417 | [10] 0.028

PCGF5 (UniProt Q86SE9)
inactive: [3] -0.037 | [6] -0.219 | [7] -0.1

PCMTD1 (UniProt Q96MG8)
inactive: [3] -0.14 | [6] 0.21 | [7] 0.08

Source: the supplement of paper PMC10849652
